Experimental data published in the supplement of paper PMC10849652.
This is one part of the list.

By UniProt entry, the sequences of proteins in these tests, tags left out. Where a name states a change or a piece, a line headed by the entry shows the natural chain unless it says otherwise.
UniProt P25116: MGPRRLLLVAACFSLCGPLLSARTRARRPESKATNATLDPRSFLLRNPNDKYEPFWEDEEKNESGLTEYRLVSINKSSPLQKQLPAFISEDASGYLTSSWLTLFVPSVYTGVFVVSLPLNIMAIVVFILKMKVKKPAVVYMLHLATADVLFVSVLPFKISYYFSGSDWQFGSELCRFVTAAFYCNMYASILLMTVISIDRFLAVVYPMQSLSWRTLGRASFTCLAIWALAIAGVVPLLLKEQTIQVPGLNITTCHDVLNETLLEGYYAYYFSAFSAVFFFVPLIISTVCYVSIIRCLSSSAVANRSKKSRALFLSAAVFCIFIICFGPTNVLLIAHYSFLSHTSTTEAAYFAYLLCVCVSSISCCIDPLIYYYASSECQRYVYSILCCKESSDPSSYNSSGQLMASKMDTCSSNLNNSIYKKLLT
UniProt P00742, whole entry, looked up: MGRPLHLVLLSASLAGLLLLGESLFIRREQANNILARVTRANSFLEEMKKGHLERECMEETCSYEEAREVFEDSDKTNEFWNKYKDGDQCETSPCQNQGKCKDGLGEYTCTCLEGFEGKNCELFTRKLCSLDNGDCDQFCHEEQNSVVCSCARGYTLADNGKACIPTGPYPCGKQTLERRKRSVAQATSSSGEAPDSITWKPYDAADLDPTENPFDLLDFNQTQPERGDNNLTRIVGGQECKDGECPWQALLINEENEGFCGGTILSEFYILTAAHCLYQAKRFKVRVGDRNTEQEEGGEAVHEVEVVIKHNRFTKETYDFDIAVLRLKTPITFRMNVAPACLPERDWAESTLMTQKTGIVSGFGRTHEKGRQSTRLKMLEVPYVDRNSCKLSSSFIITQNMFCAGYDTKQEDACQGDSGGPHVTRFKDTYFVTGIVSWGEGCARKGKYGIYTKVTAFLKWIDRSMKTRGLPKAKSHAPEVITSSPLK
UniProt Q8WU58: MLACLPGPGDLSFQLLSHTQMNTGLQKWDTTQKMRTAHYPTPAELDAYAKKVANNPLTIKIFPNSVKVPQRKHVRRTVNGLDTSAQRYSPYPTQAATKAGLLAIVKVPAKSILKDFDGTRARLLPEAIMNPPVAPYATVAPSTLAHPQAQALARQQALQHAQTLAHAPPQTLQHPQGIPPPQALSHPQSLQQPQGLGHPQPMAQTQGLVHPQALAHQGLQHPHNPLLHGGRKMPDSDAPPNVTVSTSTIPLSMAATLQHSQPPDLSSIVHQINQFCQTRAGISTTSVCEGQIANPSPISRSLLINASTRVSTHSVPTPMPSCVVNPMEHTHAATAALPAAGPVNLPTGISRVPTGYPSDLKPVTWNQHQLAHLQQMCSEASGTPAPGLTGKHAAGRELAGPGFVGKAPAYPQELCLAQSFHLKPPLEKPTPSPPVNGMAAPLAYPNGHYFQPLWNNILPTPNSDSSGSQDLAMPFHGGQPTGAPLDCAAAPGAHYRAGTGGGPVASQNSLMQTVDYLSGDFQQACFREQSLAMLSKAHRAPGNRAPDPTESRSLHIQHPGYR
UniProt Q14153: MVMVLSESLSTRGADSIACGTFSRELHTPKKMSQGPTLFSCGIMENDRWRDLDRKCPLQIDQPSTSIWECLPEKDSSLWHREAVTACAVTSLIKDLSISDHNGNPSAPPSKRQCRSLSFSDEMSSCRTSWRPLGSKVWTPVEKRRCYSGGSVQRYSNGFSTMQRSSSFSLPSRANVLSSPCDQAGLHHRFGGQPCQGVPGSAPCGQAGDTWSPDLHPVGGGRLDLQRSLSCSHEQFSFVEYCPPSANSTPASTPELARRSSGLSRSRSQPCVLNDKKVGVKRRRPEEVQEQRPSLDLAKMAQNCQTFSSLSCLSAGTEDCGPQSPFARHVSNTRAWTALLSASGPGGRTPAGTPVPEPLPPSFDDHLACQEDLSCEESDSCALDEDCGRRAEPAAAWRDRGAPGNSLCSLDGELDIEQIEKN
UniProt P43268: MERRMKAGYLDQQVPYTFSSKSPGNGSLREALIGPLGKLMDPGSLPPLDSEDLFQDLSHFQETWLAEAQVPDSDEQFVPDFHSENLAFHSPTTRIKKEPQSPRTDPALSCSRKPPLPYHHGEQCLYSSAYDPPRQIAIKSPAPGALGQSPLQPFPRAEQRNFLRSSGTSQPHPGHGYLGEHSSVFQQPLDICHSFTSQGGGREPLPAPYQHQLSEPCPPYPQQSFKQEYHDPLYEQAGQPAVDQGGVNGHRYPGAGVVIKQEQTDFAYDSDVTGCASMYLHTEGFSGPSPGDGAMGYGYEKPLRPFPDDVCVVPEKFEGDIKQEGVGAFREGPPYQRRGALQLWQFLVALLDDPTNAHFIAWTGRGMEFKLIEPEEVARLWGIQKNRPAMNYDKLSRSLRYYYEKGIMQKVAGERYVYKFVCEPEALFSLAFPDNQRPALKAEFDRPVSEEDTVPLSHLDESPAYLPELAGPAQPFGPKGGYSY
UniProt Q6NZ36: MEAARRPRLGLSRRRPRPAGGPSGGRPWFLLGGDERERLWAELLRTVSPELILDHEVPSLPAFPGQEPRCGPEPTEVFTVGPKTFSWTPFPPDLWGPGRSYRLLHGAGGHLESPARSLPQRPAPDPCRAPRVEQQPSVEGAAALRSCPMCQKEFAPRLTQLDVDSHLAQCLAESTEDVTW
UniProt Q9P2D6: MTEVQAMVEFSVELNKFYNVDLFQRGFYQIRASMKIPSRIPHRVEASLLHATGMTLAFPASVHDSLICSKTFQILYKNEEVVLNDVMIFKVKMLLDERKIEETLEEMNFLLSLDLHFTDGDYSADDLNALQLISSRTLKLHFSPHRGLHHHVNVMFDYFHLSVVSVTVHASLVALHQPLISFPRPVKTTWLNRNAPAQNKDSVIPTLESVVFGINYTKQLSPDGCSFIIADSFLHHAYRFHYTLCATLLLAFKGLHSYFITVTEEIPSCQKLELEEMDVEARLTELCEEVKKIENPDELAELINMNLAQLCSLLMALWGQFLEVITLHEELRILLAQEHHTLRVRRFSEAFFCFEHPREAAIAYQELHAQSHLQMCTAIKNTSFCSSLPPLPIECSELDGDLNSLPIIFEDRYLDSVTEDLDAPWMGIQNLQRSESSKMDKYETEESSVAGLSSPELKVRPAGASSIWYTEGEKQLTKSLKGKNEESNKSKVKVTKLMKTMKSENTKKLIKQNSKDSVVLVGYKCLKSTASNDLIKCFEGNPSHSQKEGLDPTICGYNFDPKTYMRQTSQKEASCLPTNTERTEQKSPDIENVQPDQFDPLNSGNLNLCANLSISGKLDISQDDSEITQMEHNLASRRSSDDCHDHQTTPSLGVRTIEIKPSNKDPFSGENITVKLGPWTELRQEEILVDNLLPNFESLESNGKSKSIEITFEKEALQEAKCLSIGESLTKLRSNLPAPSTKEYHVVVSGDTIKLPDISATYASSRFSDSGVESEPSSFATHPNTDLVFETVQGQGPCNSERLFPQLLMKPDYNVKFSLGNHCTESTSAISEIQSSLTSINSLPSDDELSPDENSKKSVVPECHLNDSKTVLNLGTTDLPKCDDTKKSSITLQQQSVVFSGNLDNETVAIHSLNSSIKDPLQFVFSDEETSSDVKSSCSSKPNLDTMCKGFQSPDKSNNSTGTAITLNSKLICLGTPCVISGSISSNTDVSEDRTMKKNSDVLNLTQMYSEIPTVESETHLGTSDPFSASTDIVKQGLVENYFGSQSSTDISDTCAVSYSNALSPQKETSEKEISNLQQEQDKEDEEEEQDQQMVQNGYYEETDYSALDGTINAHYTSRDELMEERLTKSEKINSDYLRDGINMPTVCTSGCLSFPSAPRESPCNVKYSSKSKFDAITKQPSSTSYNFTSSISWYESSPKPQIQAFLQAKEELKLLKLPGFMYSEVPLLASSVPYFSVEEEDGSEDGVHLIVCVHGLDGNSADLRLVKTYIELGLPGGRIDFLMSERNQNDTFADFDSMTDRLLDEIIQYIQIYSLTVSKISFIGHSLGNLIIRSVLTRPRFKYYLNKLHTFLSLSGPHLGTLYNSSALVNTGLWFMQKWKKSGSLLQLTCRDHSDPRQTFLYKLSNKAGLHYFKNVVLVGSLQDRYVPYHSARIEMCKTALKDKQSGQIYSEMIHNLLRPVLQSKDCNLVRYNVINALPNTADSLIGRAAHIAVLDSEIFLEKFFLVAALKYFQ
UniProt Q5VUB5: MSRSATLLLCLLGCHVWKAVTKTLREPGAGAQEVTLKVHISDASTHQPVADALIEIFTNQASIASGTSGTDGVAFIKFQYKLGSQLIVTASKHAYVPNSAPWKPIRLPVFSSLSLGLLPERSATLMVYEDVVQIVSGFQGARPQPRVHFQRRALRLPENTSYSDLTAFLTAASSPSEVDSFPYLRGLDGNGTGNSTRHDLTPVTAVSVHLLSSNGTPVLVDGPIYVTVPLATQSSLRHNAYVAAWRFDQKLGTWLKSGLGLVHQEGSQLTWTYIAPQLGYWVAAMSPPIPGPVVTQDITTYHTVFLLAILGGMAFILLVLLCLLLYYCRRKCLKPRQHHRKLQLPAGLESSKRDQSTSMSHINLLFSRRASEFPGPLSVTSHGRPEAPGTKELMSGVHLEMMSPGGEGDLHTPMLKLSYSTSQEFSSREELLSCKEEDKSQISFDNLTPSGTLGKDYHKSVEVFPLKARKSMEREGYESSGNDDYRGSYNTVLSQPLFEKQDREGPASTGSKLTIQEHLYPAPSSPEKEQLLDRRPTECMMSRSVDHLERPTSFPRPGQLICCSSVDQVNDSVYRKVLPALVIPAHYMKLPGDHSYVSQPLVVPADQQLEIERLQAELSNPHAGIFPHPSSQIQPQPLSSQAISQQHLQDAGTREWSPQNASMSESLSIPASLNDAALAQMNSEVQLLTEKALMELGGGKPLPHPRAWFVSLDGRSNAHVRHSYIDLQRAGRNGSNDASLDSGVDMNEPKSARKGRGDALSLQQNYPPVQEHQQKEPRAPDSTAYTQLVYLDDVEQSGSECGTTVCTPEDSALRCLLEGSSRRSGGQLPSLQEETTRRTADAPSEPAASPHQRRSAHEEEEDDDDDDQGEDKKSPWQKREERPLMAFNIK
UniProt Q5XKK7: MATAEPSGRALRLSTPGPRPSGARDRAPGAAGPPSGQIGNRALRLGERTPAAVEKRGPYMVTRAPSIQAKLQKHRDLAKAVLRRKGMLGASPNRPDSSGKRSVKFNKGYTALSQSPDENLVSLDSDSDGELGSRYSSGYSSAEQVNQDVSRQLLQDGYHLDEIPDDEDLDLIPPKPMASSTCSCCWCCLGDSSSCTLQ
UniProt O95718: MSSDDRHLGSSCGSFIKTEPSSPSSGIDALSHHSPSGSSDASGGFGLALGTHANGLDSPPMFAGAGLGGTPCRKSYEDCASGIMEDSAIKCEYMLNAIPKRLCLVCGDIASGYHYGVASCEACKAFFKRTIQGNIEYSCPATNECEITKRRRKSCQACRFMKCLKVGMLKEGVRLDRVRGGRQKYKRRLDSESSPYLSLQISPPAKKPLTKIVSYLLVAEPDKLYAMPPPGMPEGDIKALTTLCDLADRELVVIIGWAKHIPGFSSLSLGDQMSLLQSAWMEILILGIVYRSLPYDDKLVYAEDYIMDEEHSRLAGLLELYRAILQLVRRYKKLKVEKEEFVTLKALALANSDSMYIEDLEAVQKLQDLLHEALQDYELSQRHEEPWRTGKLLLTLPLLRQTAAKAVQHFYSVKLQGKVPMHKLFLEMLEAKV
UniProt Q9Y421: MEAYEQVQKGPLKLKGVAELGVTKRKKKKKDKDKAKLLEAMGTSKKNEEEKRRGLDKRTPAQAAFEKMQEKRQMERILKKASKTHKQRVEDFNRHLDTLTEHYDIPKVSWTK
UniProt P41161: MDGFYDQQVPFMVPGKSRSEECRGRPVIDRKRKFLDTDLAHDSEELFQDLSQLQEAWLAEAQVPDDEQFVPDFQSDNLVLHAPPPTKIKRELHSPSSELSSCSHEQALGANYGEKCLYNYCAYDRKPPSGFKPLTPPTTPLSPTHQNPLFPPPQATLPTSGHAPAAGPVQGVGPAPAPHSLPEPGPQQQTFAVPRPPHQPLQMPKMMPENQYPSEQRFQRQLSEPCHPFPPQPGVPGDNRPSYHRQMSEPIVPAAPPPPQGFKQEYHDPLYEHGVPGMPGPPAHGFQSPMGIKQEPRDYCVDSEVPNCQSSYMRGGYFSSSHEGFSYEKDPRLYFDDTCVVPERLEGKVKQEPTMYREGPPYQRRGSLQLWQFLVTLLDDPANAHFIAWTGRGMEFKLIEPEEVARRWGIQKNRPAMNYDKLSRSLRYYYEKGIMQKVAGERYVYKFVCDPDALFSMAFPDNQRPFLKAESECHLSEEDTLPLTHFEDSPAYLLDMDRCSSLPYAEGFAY
UniProt Q9H790: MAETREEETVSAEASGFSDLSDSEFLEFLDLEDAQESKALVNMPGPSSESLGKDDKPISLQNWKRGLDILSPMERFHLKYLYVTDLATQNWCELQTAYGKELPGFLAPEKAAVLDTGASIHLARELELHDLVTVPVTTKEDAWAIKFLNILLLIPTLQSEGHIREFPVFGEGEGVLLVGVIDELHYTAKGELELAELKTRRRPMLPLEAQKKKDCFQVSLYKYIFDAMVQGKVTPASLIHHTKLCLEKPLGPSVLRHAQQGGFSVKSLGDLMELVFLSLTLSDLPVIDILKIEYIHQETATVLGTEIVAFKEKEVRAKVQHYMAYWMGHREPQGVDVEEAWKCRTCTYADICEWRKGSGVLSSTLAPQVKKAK

Columns and labels:
Assay in all cases: log2 fold change, soluble protein after heating vs DMSO (PISA); higher = thermal stabilisation; K562 lysate, 10 uM; active = over 0.2 and 3.5 SD of the protein, either way, in both replicates (recomputed)
crizotinib = compound: C[C@@H](Oc1cc(-c2cnn(C3CCNCC3)c2)cnc1N)c1c(Cl)ccc(F)c1Cl [crizotinib]
Outline: (§1)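 Following dounce homogenisation of K562 pellets in PBS pH 7.4 with 1 mM MgCl2, crude extract at 1 mg/mL protein was incubated for 30 min with 10 μM compound. Aliquots were then heated for 3 min over 48°C-58°C and pooled, NP-40 was added to 0.5% at 4°C, and soluble protein was recovered as the supernatant at 21,000xg for 90 min. Channel-sum-equalised TMTpro 16plex LC-MS/MS quantified this protein. Each value, from duplicates, is a log-two fold change in thermal stability relative to solvent controls.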

[1] = compound: C[C@H](C1=CC=C(C=C1)C(=O)NC2=C3C=CNC3=NC=C2)N
Outline: as §1

gandotinib = compound: Cc1cc(Nc2cc(CN3CCOCC3)c3nc(C)c(Cc4ccc(Cl)cc4F)n3n2)n[nH]1 [gandotinib]
Outline: as §1

doramapimod = compound: Cc1ccc(-n2nc(C(C)(C)C)cc2NC(=O)Nc2ccc(OCCN3CCOCC3)c3ccccc23)cc1 [doramapimod]
Outline: as §1

[2] = compound: Cc1cccc(CC(=O)N2CCc3c2ccc(-c2cn(C)c4ncnc(N)c24)c3F)n1
Outline: as §1

quisinostat = compound: Cn1cc(CNCC2CCN(c3ncc(C(=O)NO)cn3)CC2)c2ccccc21 [quisinostat]
Outline: as §1

[3] = compound: NC(=O)Nc1cc(-c2cccc(F)c2)sc1C(=O)N[C@H]1CCCNC1
Outline: as §1

pictilisib = compound: CS(=O)(=O)N1CCN(Cc2cc3nc(-c4cccc5[nH]ncc45)nc(N4CCOCC4)c3s2)CC1 [pictilisib]
Outline: as §1

bafetinib = compound: Cc1ccc(NC(=O)c2ccc(CN3CC[C@H](N(C)C)C3)c(C(F)(F)F)c2)cc1Nc1nccc(-c2cncnc2)n1 [bafetinib]
Outline: as §1

duvelisib = compound: C[C@H](Nc1ncnc2nc[nH]c12)c1cc2cccc(Cl)c2c(=O)n1-c1ccccc1 [duvelisib]
Outline: as §1

tozasertib = compound: Cc1cc(Nc2cc(N3CCN(C)CC3)nc(Sc3ccc(NC(=O)C4CC4)cc3)n2)n[nH]1 [tozasertib]
Outline: as §1

nilotinib = compound: Cc1cn(-c2cc(NC(=O)c3ccc(C)c(Nc4nccc(-c5cccnc5)n4)c3)cc(C(F)(F)F)c2)cn1 [nilotinib]
Outline: as §1

[4] = compound: Cc1nc(Nc2n[nH]c3c2CN(C(=O)N[C@H](CN(C)C)c2ccccc2)C3(C)C)c2sccc2n1
Outline: as §1

dasatinib = compound: Cc1nc(Nc2ncc(C(=O)Nc3c(C)cccc3Cl)s2)cc(N2CCN(CCO)CC2)n1 [dasatinib]
Outline: as §1

[5] = compound: Cc1ncc(-c2ccnc(Nc3ccc(S(C)(=O)=O)cc3)n2)n1C(C)C
Outline: as §1

[6] = compound: Cn1cc(-c2ccc3c(c2)CCN3C(=O)Cc2cccc(C(F)(F)F)c2)c2c(N)ncnc21
Outline: as §1

tipifarnib = compound: Cn1cncc1[C@@](N)(c1ccc(Cl)cc1)c1ccc2c(c1)c(-c1cccc(Cl)c1)cc(=O)n2C [tipifarnib]
Outline: as §1

[7] = compound: NC1(c2ccc(-c3nc4ccn5c(=O)[nH]nc5c4cc3-c3ccccc3)cc2)CCC1
Outline: as §1

lapatinib = compound: CS(=O)(=O)CCNCc1ccc(-c2ccc3ncnc(Nc4ccc(OCc5cccc(F)c5)c(Cl)c4)c3c2)o1 [lapatinib]
Outline: as §1

[8] = compound: NC(=O)c1cnc(N[C@@H]2CCCC[C@@H]2N)nc1Nc1cccc(-n2nccn2)c1
Outline: as §1

Measured: log2 fold change

F2R (UniProt P25116)
inactive: crizotinib -0.025 | [1] 0.081 | gandotinib -0.044 | doramapimod -0.018 | [2] -0.031 | quisinostat -0.044 | [3] 0.005

F10 (UniProt P00742)
inactive: pictilisib -0.049 | bafetinib -0.146

FAM222B (UniProt Q8WU58)
inactive: pictilisib -0.104 | crizotinib 0.052 | duvelisib -0.02 | tozasertib -0.115 | doramapimod 0.061 | bafetinib 0.044 | nilotinib -0.078 | [4] 0.115 | dasatinib -0.018 | [5] 0.092 | [6] 0.041 | quisinostat -0.004 | tipifarnib 0.124 | [3] -0.075 | [7] 0.022

FAM53B (UniProt Q14153)
inactive: pictilisib 0.02 | crizotinib -0.03 | [1] -0.032 | duvelisib 0.079 | gandotinib 0.037 | tozasertib 0.024 | doramapimod 0.169 | bafetinib -0.023 | [2] 0.083 | nilotinib 0.015 | [4] 0.013 | dasatinib 0.036 | [5] 0.004 | [6] 0.14 | quisinostat -0.078 | tipifarnib -0.013 | [3] 0.093 | [7] 0.042

ETV4 (UniProt P43268)
inactive: crizotinib 0.068 | [1] -0.008 | gandotinib -0.151 | tozasertib -0.137 | doramapimod 0.029 | [2] -0.011 | nilotinib 0.113 | [4] -0.064 | [5] 0.039 | quisinostat 0.079 | tipifarnib -0.035 | [3] 0.085 | [7] -0.13

FAAP20 isoform 2 (UniProt Q6NZ36)
inactive: crizotinib -0.063 | [1] 0.017 | gandotinib -0.048 | doramapimod -0.064 | [2] -0.02 | quisinostat 0.057 | [3] -0.038

FAM135A (UniProt Q9P2D6)
inactive: pictilisib -0.031 | crizotinib -0.13 | [1] 0.01 | duvelisib 0.06 | gandotinib 0.069 | doramapimod -0.036 | bafetinib -0.248 | [2] 0.071 | nilotinib 0.122 | [4] -0.173 | dasatinib 0.083 | [5] 0.19 | [6] 0.093 | quisinostat -0.029 | tipifarnib 0.042 | [3] -0.084

FAM171A1 (UniProt Q5VUB5)
inactive: lapatinib -0.221 | duvelisib -0.006 | dasatinib -0.045 | [6] 0.018 | [8] -0.085 | [7] 0.302

EWSR1 (UniProt H7BY36)
inactive: pictilisib 0.071 | crizotinib -0.042 | [1] 0.07 | duvelisib -0.011 | gandotinib -0.167 | tozasertib 0.01 | doramapimod -0.066 | bafetinib 0.293 | [2] 0.019 | dasatinib -0.104 | [6] -0.025 | quisinostat 0.112 | [3] 0.118

FAM219B (UniProt Q5XKK7)
inactive: pictilisib 0.137 | crizotinib -0.15 | [1] 0.113 | gandotinib -0.14 | doramapimod -0.02 | bafetinib -0.074 | [2] -0.041 | quisinostat -0.169 | [3] 0.04

ESRRB isoform 1 (UniProt O95718)
inactive: pictilisib 0.05 | [1] 0.438 | gandotinib -0.437 | bafetinib 0.028 | [2] -0.308 | [7] 0.182

FAM32A (UniProt Q9Y421)
inactive: pictilisib 0.021 | crizotinib 0.011 | [1] -0.049 | duvelisib -0.054 | gandotinib 0.012 | tozasertib -0.032 | doramapimod 0.078 | bafetinib -0.006 | [2] 0.042 | dasatinib -0.031 | [6] 0.038 | quisinostat -0.064 | [3] 0.002 | [7] -0.021

ETV5 isoform 2 (UniProt P41161)
inactive: [1] -0.077 | gandotinib -0.02 | tozasertib -0.01 | [2] -0.031

EXO5 (UniProt Q9H790)
active: pictilisib -0.43
inactive: crizotinib -0.113 | doramapimod 0.061 | bafetinib -0.261 | quisinostat -0.082 | [3] -0.071 | [7] 0.08
